In publication doi:10.1101/2021.08.12.456108:
These are yes or no findings as the source states them, for the method shown. Binding seen in cells or lysates may run through a third protein. Some entries that bind do so weakly or less than the wild type. Values belong to the substance of their own block, whether it stands above or below them.

Sequences of proteins named here, by UniProt entry; tags and fusion partners are left off. A change or cut given only in a name is not applied to a line headed by its entry.
UniProt Q93009: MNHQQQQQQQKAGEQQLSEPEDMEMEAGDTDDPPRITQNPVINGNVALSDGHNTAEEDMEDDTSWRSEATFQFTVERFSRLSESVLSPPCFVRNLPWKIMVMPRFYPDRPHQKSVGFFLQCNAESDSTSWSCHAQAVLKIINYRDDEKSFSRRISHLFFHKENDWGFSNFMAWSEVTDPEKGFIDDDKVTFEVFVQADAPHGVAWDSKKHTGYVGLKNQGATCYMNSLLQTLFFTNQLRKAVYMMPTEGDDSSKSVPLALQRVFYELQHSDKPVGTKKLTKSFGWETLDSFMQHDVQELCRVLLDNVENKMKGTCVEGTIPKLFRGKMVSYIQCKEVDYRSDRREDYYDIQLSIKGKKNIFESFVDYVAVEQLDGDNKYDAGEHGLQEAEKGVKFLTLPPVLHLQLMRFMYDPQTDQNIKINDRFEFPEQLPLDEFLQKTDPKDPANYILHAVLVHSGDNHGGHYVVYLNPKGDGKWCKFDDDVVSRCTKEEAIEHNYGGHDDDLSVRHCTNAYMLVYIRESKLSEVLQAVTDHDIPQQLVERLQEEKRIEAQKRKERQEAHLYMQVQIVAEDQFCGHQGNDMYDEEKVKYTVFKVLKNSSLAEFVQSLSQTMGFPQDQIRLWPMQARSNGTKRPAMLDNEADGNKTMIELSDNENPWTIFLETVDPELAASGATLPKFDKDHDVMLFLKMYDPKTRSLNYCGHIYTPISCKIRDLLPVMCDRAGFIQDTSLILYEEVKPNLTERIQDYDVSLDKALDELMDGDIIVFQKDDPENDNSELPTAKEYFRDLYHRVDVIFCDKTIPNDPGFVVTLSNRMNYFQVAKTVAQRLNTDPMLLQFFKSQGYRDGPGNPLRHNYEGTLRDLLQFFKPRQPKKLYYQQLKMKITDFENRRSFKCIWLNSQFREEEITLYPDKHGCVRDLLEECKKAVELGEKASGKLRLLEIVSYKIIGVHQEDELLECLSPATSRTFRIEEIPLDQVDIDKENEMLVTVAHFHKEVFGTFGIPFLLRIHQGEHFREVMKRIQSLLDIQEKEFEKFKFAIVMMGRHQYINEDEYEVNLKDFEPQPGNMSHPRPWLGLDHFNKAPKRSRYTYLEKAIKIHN
UniProt P98170: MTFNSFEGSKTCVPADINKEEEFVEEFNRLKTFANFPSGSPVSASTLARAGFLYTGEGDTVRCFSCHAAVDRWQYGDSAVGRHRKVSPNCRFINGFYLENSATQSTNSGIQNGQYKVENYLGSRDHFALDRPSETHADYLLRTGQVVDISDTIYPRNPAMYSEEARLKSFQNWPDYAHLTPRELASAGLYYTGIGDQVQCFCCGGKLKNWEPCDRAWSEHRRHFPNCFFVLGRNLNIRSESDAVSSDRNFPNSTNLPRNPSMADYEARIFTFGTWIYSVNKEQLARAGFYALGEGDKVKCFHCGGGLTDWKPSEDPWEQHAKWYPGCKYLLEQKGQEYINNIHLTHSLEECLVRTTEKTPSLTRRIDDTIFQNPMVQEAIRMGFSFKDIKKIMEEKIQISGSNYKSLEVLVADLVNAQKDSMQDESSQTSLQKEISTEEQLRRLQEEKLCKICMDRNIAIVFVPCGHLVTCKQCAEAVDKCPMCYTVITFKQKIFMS

How the values were obtained:
FLAG-USP7 = FLAG-USP7 (UniProt Q93009); experiment: co-IP
His-XIAP = His-XIAP (UniProt P98170); experiment: pull-down
[1] = target: endogenous XIAP (X-linked IAP) of HEK cells (human (endogenous in HEK)) (UniProt P98170); experiment: co-IP
GST-XIAP = GST-XIAP (UniProt P98170); experiment: pull-down
[2] = target: endogenous USP7 of HEK cells (human (endogenous in HEK)) (UniProt Q93009); experiment: co-IP

Substance: GFP-XIAP (from UniProt P98170 1-497)
binding (FLAG-USP7): binds

Substance: endogenous XIAP (X-linked IAP) of HEK cells (from UniProt P98170 1-497)
binding [2]: binds

Substance: Myc-His-USP7 (from UniProt Q93009 1-1102) (enzyme)
binding (GST-XIAP): binds

Continued, values first:

binding (His-XIAP): binds
Substance: full-length USP7 (transfected in HEK cells beside the USP7 deletion mutants) (from UniProt Q93009 1-1102) (enzyme)

binding [1]: binds | binding (GST-XIAP): binds
Substance: endogenous USP7 of HEK cells (from UniProt Q93009 1-1102) (enzyme)
